# Laboratory results: PubChem BioAssay AID602196 (INSERM, 2012)
# Screen: 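Modifiers of cisplatin sensitivity in A549 cells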
# System: human A549 lung cancer cells
# Reagents: siRNA pair against human genes
# Duration: 48 h transfection before cisplatin; time from cisplatin to read-out not stated
# Treatment: cisplatin at a dose killing half of control-siRNA cells; exact dose and duration not given
# Measurement: 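Cisplatin cell death as a shift from the 50% death seen with control siRNA; siRNAs toxic or growth-blocking alone scored 0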
# Direction: two-siRNA summed score (-2 to +2): higher = both siRNAs protect from cisplatin killing; -2 means both sensitise; mean protection from cisplatin (shift in death) and protection from cisplatin (shift in death), siRNA C and protection from cisplatin (shift in death), siRNA D: higher = protection from cisplatin killing
# Call rule: 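Each siRNA scores 0 if harmful alone by LDH or WST-1, otherwise +1 if it reduces and -1 if it increases cisplatin killing; a gene is active when both siRNAs agree (sum +2 or -2)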
# Calls: active = both siRNAs shift cisplatin killing the same way; inactive = no consistent shift, or siRNA harmful alone
# Shown is an unselected part of about 23,000 reagents tested. Of all reagents, 455 (2%) got an active call. 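Active includes both protection and sensitisation; some change values fall well beyond the stated -50 to +50 range.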 Not stated in the record: the amount of reagent.
target gene,two-siRNA summed score (-2 to +2),mean protection from cisplatin (shift in death) (%),"protection from cisplatin (shift in death), siRNA C (%)","protection from cisplatin (shift in death), siRNA D (%)",call
TSPYL4,0,8.2,29.9,-13.5,inactive
LOC137485,0,-2.6,1.9,-7.1,inactive
TEKT2,0,10.4,9.7,11.1,inactive
LCN9,0,19,8.8,29.1,inactive
LOC283871,1,11.8,17.2,6.5,inactive
C9orf40,0,3.3,6.5,0,inactive
LOC441421,0,8.2,6.1,10.3,inactive
ADIPOR1,-1,-23,-15.2,-30.9,inactive
LOC402340,1,15.2,22.9,7.4,inactive
FETUB,-1,-5,4.5,-14.4,inactive
MEX3D,1,19.8,14.4,25.2,inactive
TRIP10,1,11,7.6,14.5,inactive
IDO2,-1,-12.4,-7.7,-17.2,inactive

2 entries from above in another layout:
target gene	two-siRNA summed score (-2 to +2)	mean protection from cisplatin (shift in death) (%)	protection from cisplatin (shift in death), siRNA C (%)	protection from cisplatin (shift in death), siRNA D (%)	call
LOC402340	1	15.2	22.9	7.4	inactive
FETUB	-1	-5	4.5	-14.4	inactive
